PubChem BioAssay AID1159584 – Peter MacCallum Cancer Centre | 2016

- Purpose: 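Genes whose loss is lethal only together with E-cadherin loss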 (primary screen)
- System: human MCF10A breast epithelial cells, parental and CDH1-null
- Reagent: siRNA against human genes
- Detection: 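Cell viability by CellTiter-Glo ATP luminescence, each line scaled to the mean of mock wells across plates, then CDH1-null over parental ratio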
- Direction: CDH1-null / parental viability ratio: higher = CDH1-null cells survive relatively better than parental; CDH1-null viability vs mock: higher = more viable CDH1-null cells
Here is an unselected part of about 18,000 reagents. Further read-outs or replicates are left out here. No sequences are given here. The record does not give: the amount of reagent, the time to read-out.

| gene symbol | CDH1-null / parental viability ratio | CDH1-null viability vs mock (fraction of mock) |
| --- | --- | --- |
| FAM47B (family with sequence similarity 47 member B) | 1.07 | 0.94 |
| CNBP (CCHC-type zinc finger nucleic acid binding protein) | 0.95 | 0.79 |
| PCSK4 (proprotein convertase subtilisin/kexin type 4) | 1.05 | 0.86 |
| FGF1 (fibroblast growth factor 1) | 0.93 | 0.76 |
| SLITRK4 (SLIT and NTRK like family member 4) | 1.32 | 0.96 |
| ANXA9 (annexin A9) | 1.5 | 0.33 |
| SPTBN5 (spectrin beta, non-erythrocytic 5) | 1.1 | 1.1 |
| CDY2A (chromodomain Y-linked 2A) | 0.87 | 0.59 |
| GRM5 (glutamate metabotropic receptor 5) | 0.95 | 0.78 |
| FKTN (fukutin) | 0.98 | 0.94 |
| STX16 (syntaxin 16) | 1.11 | 1.04 |
| ARID5A (AT-rich interaction domain 5A) | 0.99 | 0.98 |
| ERAL1 (Era like 12S mitochondrial rRNA chaperone 1) | 0.92 | 0.65 |
| FSTL5 (follistatin like 5) | 0.83 | 0.8 |
| KIFC3 (kinesin family member C3) | 0.71 | 0.6 |
| ARHGEF10 (Rho guanine nucleotide exchange factor 10) | 1.14 | 1.04 |
| HAUS2 (HAUS augmin like complex subunit 2) | 1.06 | 0.52 |
| IFNA4 (interferon alpha 4) | 1.09 | 1.05 |
| REXO1L1P (REXO1 like 1, pseudogene) | 1.06 | 1.02 |
| SSTR5 (somatostatin receptor 5) | 1.73 | 0.76 |
| IL34 (interleukin 34) | 0.98 | 0.86 |
| ACTR1B (actin related protein 1B) | 1.09 | 0.98 |
| SLFN5 (schlafen family member 5) | 1.04 | 0.97 |
| ZBTB1 (zinc finger and BTB domain containing 1) | 1.17 | 1.08 |
| LMO4 (LIM domain only 4) | 1.04 | 1 |
| CLSTN1 (calsyntenin 1) | 0.95 | 0.73 |
| UNC13B (unc-13 homolog B) | 0.94 | 0.9 |
| ISM2 (isthmin 2) | 1.03 | 0.37 |
| RNF44 (ring finger protein 44) | 0.95 | 1.01 |
| KLHL20 (kelch like family member 20) | 1.17 | 0.48 |
| RAB12 (RAB12, member RAS oncogene family) | 0.67 | 0.41 |
| ECM1 (extracellular matrix protein 1) | 0.78 | 0.56 |
| HFE (homeostatic iron regulator) | 0.93 | 0.7 |
| USP9Y (ubiquitin specific peptidase 9 Y-linked) | 1.26 | 1.1 |
| ACOT1 (acyl-CoA thioesterase 1) | 0.9 | 0.85 |
| PTGER4 (prostaglandin E receptor 4) | 0.91 | 0.95 |
| HOXC6 (homeobox C6) | 0.95 | 0.71 |
| RIPK2 (receptor interacting serine/threonine kinase 2) | 1.05 | 0.9 |
| GDPD4 (glycerophosphodiester phosphodiesterase domain containing 4) | 0.86 | 0.64 |
| ABCB10 (ATP binding cassette subfamily B member 10) | 0.9 | 0.54 |
| SMIM11 (small integral membrane protein 11) | 1.16 | 0.57 |
| ZFAT (zinc finger and AT-hook domain containing) | 1.24 | 0.97 |
| GGA2 | 0.82 | 0.73 |
| ZNF449 (zinc finger protein 449) | 0.99 | 0.98 |
| CBX6 (chromobox 6) | 1.09 | 0.5 |
| SOX30 (SRY-box transcription factor 30) | 1.12 | 1.1 |
| VCAN (versican) | 0.85 | 0.78 |
| PPM1E (protein phosphatase, Mg2+/Mn2+ dependent 1E) | 1.64 | 0.82 |
| NUBPL (NUBP iron-sulfur cluster assembly factor, mitochondrial) | 1.17 | 0.9 |
| SLC2A13 | 0.76 | 0.56 |
| ST3GAL5 (ST3 beta-galactoside alpha-2,3-sialyltransferase 5) | 0.98 | 0.9 |
| RWDD4 (RWD domain containing 4) | 0.84 | 0.62 |
| SNAPC3 (small nuclear RNA activating complex polypeptide 3) | 1.07 | 1.03 |
| ARHGAP36 (Rho GTPase activating protein 36) | 0.94 | 0.6 |
| TXLNB (taxilin beta) | 0.87 | 0.82 |
| MMP2 (matrix metallopeptidase 2) | 1.14 | 0.98 |
| WRAP73 (WD repeat containing, antisense to TP73) | 1.13 | 1.04 |
| ARL2BP (ARF like GTPase 2 binding protein) | 1.23 | 0.8 |
| SPMIP2 (sperm microtubule inner protein 2) | 1.11 | 0.78 |
| CIMAP1C (ciliary microtubule associated protein 1C) | 0.68 | 0.46 |
| CT47A1 (cancer/testis antigen family 47 member A1) | 1.26 | 1.21 |
| DPAGT1 (dolichyl-phosphate N-acetylglucosaminephosphotransferase 1) | 0.8 | 0.8 |
| CYSRT1 (cysteine rich tail 1) | 1.02 | 0.9 |
| GPATCH1 (G-patch domain containing 1) | 0.96 | 0.54 |
| SH2D3C (SH2 domain containing 3C) | 1.04 | 0.5 |
| ZNF7 (zinc finger protein 7) | 1.05 | 0.96 |
| GSTA5 (glutathione S-transferase alpha 5) | 0.93 | 0.55 |
| LRFN5 | 1.03 | 1.21 |
| RUNDC3A (RUN domain containing 3A) | 1.11 | 1.02 |
| UBTD1 (ubiquitin domain containing 1) | 1.12 | 0.9 |
| ZFYVE1 (zinc finger FYVE-type containing 1) | 1.04 | 1.04 |
| CACNA2D2 | 1.17 | 0.94 |
| CLIC5 (CLIC family member 5) | 1.2 | 1.04 |
| GPR171 (G protein-coupled receptor 171) | 0.76 | 0.82 |
| RO60 (Ro60, Y RNA binding protein) | 1.3 | 0.92 |
| PAK1 (p21 (RAC1) activated kinase 1) | 0.92 | 0.7 |
| GPR137 (G protein-coupled receptor 137) | 0.92 | 0.74 |
| ZNF319 (zinc finger protein 319) | 1.02 | 0.57 |
| SLC12A2 | 0.85 | 0.62 |
| BPIFA3 (BPI fold containing family A member 3) | 0.9 | 1.09 |
| CD82 (CD82 molecule) | 0.84 | 0.76 |
| VAV1 (vav guanine nucleotide exchange factor 1) | 0.65 | 0.39 |
| DSCC1 | 1.06 | 0.9 |
| YWHAZ | 0.65 | 0.5 |
| ARL10 (ARF like GTPase 10) | 1.4 | 0.84 |
| WDR93 (WD repeat domain 93) | 0.93 | 0.84 |
| LDLRAD2 (low density lipoprotein receptor class A domain containing 2) | 1.15 | 0.76 |
